Test results: the supplement of paper PMC12578635
Some of the results follow. No stated cut-off is given here; in the data, active = 150% or more and inactive = the rest. Many values rest on one well or one pass, so single values are uncertain.

test system: Staphylococcus aureus JE2-lux inside RAW 264.7 macrophages; experiment: intracellular bacterial bioluminescence relative to DMSO vehicle; higher = higher intracellular bacterial metabolic activity; conditions: 10 µM; treatment time 4 h; gentamicin 50 µg/ml

SMILES	intracellular bacterial bioluminescence
O=C(CSc1ncnc2c1oc1ccccc12)NCC1CCCO1 (stereo not drawn)	inactive: 92.4%
Cc1oc(-c2ccno2)cc1S(=O)(=O)NCCC1=CCCCC1	inactive: 102%
COc1ccccc1N1CCN(C(=O)CSc2nnc3ccc(C(=O)Nc4ccc(C)cc4)cn23)CC1	inactive: 78%
Cc1cc(Cl)ccc1OCc1nc(-c2ccc3c(c2)[nH]c(=O)n3C2CCCC2)no1	inactive: 109%
O=C1NC(=S)/C(=C\c2ccc(-c3cc(Cl)ccc3Cl)o2)S1	inactive: 90.1%
Cc1ccc(S(=O)(=O)CCC(=O)N(CCN(C)C)c2nc3cc(C)cc(C)c3s2)cc1	inactive: 146%
O=C(Cn1cnc2c(cnn2-c2ccc(F)cc2)c1=O)NCC1CCCO1 (stereo not drawn)	inactive: 115%
COc1ccc(CCNC(=O)c2c(O)nc3scc(C)n3c2=O)cc1	inactive: 103%
O=C(NCC1CCN(Cc2ccccc2F)CC1)C1CCCN(c2ccc(N3CCOCC3)nn2)C1 (stereo not drawn)	inactive: 85.1%
Cc1cc2ncc(N3CCN(C4CCCCC4)CC3)nc2cc1C	inactive: 81%
COc1ccc(-c2cnc(NC(=O)c3ccc4nc(C)[nH]c4c3)n2C)cc1	inactive: 79.4%
O=C(Nc1cccc2ccccc12)N1CCCC(O)C1 (stereo not drawn)	inactive: 112%
CC1=C(C(=O)Nc2ccc(C)c(Cl)c2)C(c2ccc(C)cc2)NC(=O)N1 (stereo not drawn)	inactive: 101%
COc1nn(C)cc1C(=O)Nc1cccc(C(F)(F)F)c1	inactive: 111%
COc1ccccc1NCc1nc2[nH]c(C)cc(=O)n2n1	active: 193%
COCCN(CCOC)C(=O)CN1C(=O)c2ccccc2S1(=O)=O	inactive: 97.4%
O=C1CN(C(=O)CSc2nnc(-c3ccccc3)c(-c3ccccc3)n2)c2ccccc2N1	inactive: 67.7%
O=C(NCCc1cn2ccccc2n1)c1ccc([N+](=O)[O-])cc1	inactive: 68%
Fc1cc(F)c2nc(N3CCc4ccccc4C3)sc2c1	inactive: 67.9%
Cc1ccc(-c2cc(N)c(=O)n(CC(=O)NCC3CCCO3)n2)o1 (stereo not drawn)	inactive: 101%

A few values from the list.
In intracellular bacterial bioluminescence, Cc1ccc(-c2cc(N)c(=O)n(CC(=O)NCC3CCCO3)n2)o1 (stereo not drawn) is listed with inactive: 101%
In intracellular bacterial bioluminescence, Cc1oc(-c2ccno2)cc1S(=O)(=O)NCCC1=CCCCC1 is listed with inactive: 102%
In intracellular bacterial bioluminescence, COc1ccccc1N1CCN(C(=O)CSc2nnc3ccc(C(=O)Nc4ccc(C)cc4)cn23)CC1 is listed with inactive: 78%
In intracellular bacterial bioluminescence, Cc1cc(Cl)ccc1OCc1nc(-c2ccc3c(c2)[nH]c(=O)n3C2CCCC2)no1 is listed with inactive: 109%
In intracellular bacterial bioluminescence, Cc1ccc(S(=O)(=O)CCC(=O)N(CCN(C)C)c2nc3cc(C)cc(C)c3s2)cc1 is listed with inactive: 146%

Later entries

SMILES	intracellular bacterial bioluminescence
COC(=O)c1c(NC(=O)/C=C/c2ccccc2Cl)sc2c1CC(C)(C)NC2(C)C	inactive: 104%
Cn1c(=O)c2c(nc3n2CC(C(C)(C)C)=NN3Cc2ccccc2Cl)n(C)c1=O	active: 151%
O=S(=O)(Nc1cccc(-c2ccc(N3CCOCC3)nn2)c1)c1ccc(Cl)c(Cl)c1	inactive: 134%
CCCCOc1ccc(C(=O)NCCc2cc3ccc(C)c(C)c3[nH]c2=O)cc1	inactive: 85.4%
CCOC(=O)C1CCN(c2nc(C)nc3c2c(C)c(C)n3-c2ccccc2)CC1	inactive: 70.8%
COc1ccc(N2CCN(C(=O)CSc3nnc4c(n3)[nH]c3ccccc34)CC2)cc1	inactive: 105%
O=C1NC(=O)C2C1C(c1ccc(Cl)cc1)NN2Cc1ccccc1 (stereo not drawn)	inactive: 87.6%
Cc1cc(C)nc(N2CCC(C(=O)NNC(=O)c3ccccc3)CC2)n1	inactive: 98.1%
Cc1cc(=O)n2nc(CN(C(=O)c3ccccc3F)c3ccc(Cl)cc3)nc2[nH]1	inactive: 110%
N#C/C(=C/c1ccco1)c1nc(-c2cccc([N+](=O)[O-])c2)cs1	inactive: 111%
Cc1cc(NS(=O)(=O)c2ccc(NC(=O)c3cc4c(ccc5ccccc54)oc3=O)cc2)no1	inactive: 98.1%
CCOCCCn1c(=N)c(C(=O)NC)cc2c(=O)n3ccccc3nc21	inactive: 99.2%
CC(C)CNC(=O)c1cncc(NS(=O)(=O)c2ccc3c(c2)OCCO3)c1	inactive: 113%
O=c1[nH]c2ccc(S(=O)(=O)Nc3ccccc3O)cc2[nH]1	inactive: 105%
Cc1c(C(=O)O)sc2nc(SCC(=O)O)[nH]c(=O)c12	inactive: 112%
Cc1c[nH]c(=O)nc1SCC(=O)NC1CCCCC1	inactive: 124%
Cc1ccc(CN2CCc3nc(SCC(=O)Nc4cccc(C)c4C)[nH]c(=O)c3C2)cc1	inactive: 44.9%
CCC(=O)Nc1cccnc1-c1ccc(C(=O)NCc2cccc(OC)c2)cc1	inactive: 102%
CC(=O)Nc1cccc(Oc2nnc(Oc3cccc(NC(C)=O)c3)c3ccccc23)c1	inactive: 98.7%
CN(C)c1nc2c(c(=O)[nH]c(=O)n2C)n1CCSc1nc2ccccc2o1	inactive: 99.7%

SMILES	intracellular bacterial bioluminescence
O=C(Nc1cccc(N2CCCC2)c1)c1cc(-c2ccccn2)n[nH]1	inactive: 72.5%
CCn1c2c(c(=O)[nH]c1=O)C(c1ccc(F)cc1)C1=C(CC(C)(C)CC1=O)N2 (stereo not drawn)	inactive: 110%
COC(=O)c1ccc(COc2coc(CN3c4ccccc4CC3C)cc2=O)cc1 (stereo not drawn)	inactive: 38.8%
CCOC(=O)c1c(NC(=O)c2cc(Cl)ccc2[N+](=O)[O-])sc(C)c1C	inactive: 96.1%
CCOc1ccc(C(=O)C2CCN(CC(=O)Nc3nccs3)CC2)cc1	inactive: 120%
Cc1sc2ncnc(SCC(=O)NC(Cc3ccccc3)C(=O)O)c2c1C (stereo not drawn)	inactive: 94.7%
CCNS(=O)(=O)c1cc(-c2cc(C(=O)N3CCCC(C)C3)n[nH]2)ccc1OC (stereo not drawn)	inactive: 98.8%
COc1ccc(-c2nsc(SCC(=O)Nc3ccc(OC)c(OC)c3)n2)cc1	inactive: 80.4%
CCOC(=O)c1c(NC(=O)CC2Nc3cc(C)c(C)cc3NC2=O)sc(C)c1C (stereo not drawn)	inactive: 108%
CCOC(=O)c1ccc(NC(=O)C2CC3CCCN3C23C(=O)N(C)c2ccccc23)cc1 (stereo not drawn)	inactive: 114%
Cc1cc2c(=O)n(C)c(SCC(=O)c3ccccc3)nc2s1	inactive: 116%
Cc1ccc(S(=O)(=O)N2CCCC(C(N)=O)C2)cc1 (stereo not drawn)	inactive: 107%
Cc1cc(C)n2nc(C(=O)NCCCc3nc4ccccc4[nH]3)cc2n1	inactive: 114%
CC(C)CN1N=C(c2ccccc2)Cn2c1nc1c2c(=O)n(CC(C)C)c(=O)n1C	inactive: 97.4%
CCc1ccc(-c2noc3c(=O)n(CCC(=O)N4CCCc5ccccc54)cnc23)cc1	inactive: 50%
CCOC(=O)c1cc(NC(=O)Nc2ccccn2)c(C)nc1C	inactive: 71.6%
CC1Cc2ccccc2N1Cc1cc(=O)c(OCC(=O)Nc2ccc(Cl)cc2)co1 (stereo not drawn)	inactive: 86.4%
COc1ccc(Cl)c2sc(N(CCCn3ccnc3)C(=O)c3cccs3)nc12	inactive: 72.7%
